Results as given in patent publication US10550155B2 (priority 2018, dated 2020).

Assay: general procedure: Fmoc solid-phase peptide synthesis; Rink amide MBHA resin (Novabiochem, 0.51 mmol/g)
Conditions: whole synthesis

Substance	isolated yield
PEPTIDE1{F.L.S.G.I.V.[dA].M.L.G.K.L.F.[am]}$$$$V2.0	69.62%
PEPTIDE1{F.L.S.[dA].I.V.G.M.L.G.K.L.F.[am]}$$$$V2.0	68.57%
PEPTIDE1{F.L.S.G.I.V.G.M.L.[dA].K.L.F.[am]}$$$$V2.0	81.68%
PEPTIDE1{F.L.S.[dA].I.V.[dA].M.L.G.K.L.F.[am]}$$$$V2.0	80.29%
PEPTIDE1{F.L.S.[dA].I.V.[dA].M.L.[dA].K.L.F.[am]}$$$$V2.0	27.93%
PEPTIDE1{F.L.S.G.I.V.G.M.L.[dA].K.L.F.[am]}|PEPTIDE2{W.L.E.A.A.Y.Q.K.F.L}$PEPTIDE1,PEPTIDE2,11:R3-10:R2$$$V2.0	13.1%

Some peptides are written in HELM: one residue between dots, names in brackets for other building blocks, links after the first $.
